Measured values published in PubChem BioAssay AID1259415 (National Center for Advancing Translational Sciences (NCATS), 2018).
The campaign covered roughly 410,000 compounds. About 18,000 (4.4%) were called active. This list was built around the results that the source calls inconclusive (neither active nor inactive); the mix of calls is not that of the screen. No stated cut-off is given here; in the data, active means activity change below about -60%; inconclusive means no clear call, values can overlap the other calls; inactive means above about -39%.

test: qHTS Assay for inhibitors of the human cytomegalovirus (HCMV); settings: HFF cells, HCMV-luciferase reporter, 72 h; at 57.5 µM; active compounds read low
Summary of the method: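 Steps: HFFs plated, 16 h 37C; compounds added; HCMV-luciferase added to MOI 1 PFU/cell; 72 h 37C; OneGlo reagent, 5 min room temperature; luminescence read, normalized to controls.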
On the % scale 0 is the no-effect control and ±100 the full control effect.

Structure (SMILES) | activity change, negative = inhibition
Nc1ccc(NC(=S)Nc2ccccc2)cc1 | inconclusive: -48.7%
O=C(N/N=C/c1ccc([N+](=O)[O-])o1)c1ccc(O)cc1 | active: -92.8%
COc1ccc(C(=O)Cn2c(C(C)=O)nc3ccccc32)cc1 | active: -63.7%
Cc1[nH]nc(C(=O)NN=Cc2ccccc2Cl)c1N=NN(C)C | inactive: 135%
CCOc1ccc(CCNC(=O)Cn2ncc3c([nH]c4ccccc43)c2=O)cc1OCC | inactive: 3.51%
O=C(NC1CCCC1)c1cccc(S(=O)(=O)N2CCOCC2)c1 | active: -103%
CC(=O)C1=C(C)NC(SCC(=O)c2ccc(Cl)cc2)=C(C#N)C1CC(C)C (stereo not drawn) | inconclusive: -53.5%
NC1=NC(c2ccc(Cl)cc2)C(C(=O)c2ccccc2)N1 (stereo not drawn) | inconclusive: -55.7%
CCCCCCC(O)(c1ccccc1)C(CN1CCOCC1)c1ccccc1 (stereo not drawn) | active: -76.4%
COc1cccc(/C(C#N)=C/c2c(-c3ccc(Cl)cc3)nc3c(C)cccn23)c1 | inconclusive: -45.6%
CSc1nc2c(c(=O)[nH]1)C(c1ccccc1)C1=C(CC(C)(C)CC1=O)N2 (stereo not drawn) | inconclusive: -40.2%
O=C(Cc1ccccc1[N+](=O)[O-])NCC(=O)c1ccc2c(c1)OCO2 | inactive: -37.2%
COc1ccc(NC(=O)CCn2ccnc2)c(OC)c1 | inconclusive: -42.4%
Cc1ccc(NC(=O)CSCC(=O)Nc2cc(S(=O)(=O)N3CCOCC3)ccc2OC(C)C)cc1 | inactive: 61.9%
CC1CCN(CC(O)COCCOc2ccc(Br)cc2)CC1 (stereo not drawn) | inconclusive: -43.3%
CCC(=O)C(CCN1CCOCC1)(c1ccccc1)c1ccccc1 | inconclusive: -55%
O=[N+]([O-])c1ccc(-c2cnc(SC(c3ccccc3)c3ccccc3)[nH]2)cc1 | inconclusive: -53.9%
O=C(CCS(=O)(=O)c1cccs1)N1CCN(c2ccc(F)cc2)CC1 | inactive: 76.7%
CN(C)c1ccc(/C=C/c2cccc[n+]2[O-])cc1 | inactive: 135%
NC(=O)c1cc(S(=O)(=O)N2CC=C(c3ccccc3)CC2)cs1 | inconclusive: -46%
CC(C)(C)NC(=O)C12CCC(C)(c3nc4ccccc4nc31)C2(C)C (stereo not drawn) | active: -94.1%
O=C(CCCCn1c(=O)[nH]c2ccsc2c1=O)N1CCN(c2cccc(Cl)c2)CC1 | active: -69.5%

Structure (SMILES) | activity change, negative = inhibition
Cc1ccc(C(=O)OCC(=O)NCc2cccc(Cl)c2)cc1S(=O)(=O)N1CCCCC1 | inconclusive: -46.5%
COc1ccc(Nc2c([N+](=O)[O-])ccc3c2=NC2(CCCCC2)N=3)cc1 | inconclusive: -45.7%
O=C1CN(C(=O)CSc2nc3cc(Cl)ccc3c(=O)n2Cc2ccccc2)c2ccccc2N1 | inconclusive: -46.9%
CCCCN(CCCC)S(=O)(=O)c1ccc2oc(C(=O)NCc3ccccc3)c(C)c2c1 | inactive: -13.3%
CCC1C(c2ccccc2)N(C)C(c2ccccc2)CC1(O)c1ccccc1 (stereo not drawn) | inconclusive: -50.2%
NS(=O)(=O)c1ccc(CCNc2nc3c(-c4cccc(F)c4)nnn3c3ccc(Cl)cc23)cc1 | active: -102%
Cc1noc(/C=C/c2ccco2)c1S(=O)(=O)N1CCC(C(=O)N2c3ccccc3CC2C)CC1 (stereo not drawn) | inconclusive: -55%
Cc1cc(N/N=C/c2cccc(Cl)c2)nc(-n2nc(C)cc2C)n1 | active: -86.8%
O=C(CSc1nc(-c2ccco2)cc(C(F)(F)F)n1)NC1CCCC1 | active: -68.1%
COc1ccc(C(C[N+](=O)[O-])c2c(C)[nH]n(-c3ccccc3)c2=O)cc1 (stereo not drawn) | active: -103%
CC1CCC/C=C/C2CC(O)CC2C(O)/C=C/C(=O)O1 (stereo not drawn) | active: -99.7%
COc1ccc(-c2nc3cc(C)ccn3c2NC(=O)c2ccccc2OC)cc1 | inconclusive: -40.6%
O=C(CSc1nc2ccccc2nc1N1CCCCC1)N1CCN(c2ccccc2)CC1 | inconclusive: -51.9%
CCOC(=O)c1sc(=S)n(-c2cccc(C(F)(F)F)c2)c1SC | inactive: -7.25%
O=C(NC1CCCCC1)C(c1ccccc1F)n1c(=O)c(-c2cc3ccccc3[nH]2)nc2ccccc21 (stereo not drawn) | inconclusive: -44.8%
CNS(=O)(=O)c1ccc(Oc2ccc(S(=O)(=O)NC)cc2)cc1 | inconclusive: -56.5%
CC(C)(C)N(NC(=O)Nc1ccc(Cl)c(Cl)c1)C(=O)c1ccccc1 | active: -79.6%
O=C(Nc1ccccc1)OCCNC(=O)c1cccc(Br)c1 | inconclusive: -48%
CC(=O)Nc1cc(-c2ccc(N3CCN(C)CC3)cc2)cn2c(-c3ccccc3)cnc12 | active: -60.3%
CC1=CC(C)(C)N(S(=O)(=O)c2ccc(C)cc2)c2ccc(C)cc21 | active: -73.8%
CCn1c(-c2cccnc2Cl)nc2cc(C)c(C)cc21 | inactive: -25.4%
CCOc1ccc(NC(=O)CN(C)C(=O)C2CCN(c3ncnc4sc(C)c(C)c34)CC2)cc1OCC | active: -68.5%

Individual results from above:
O=C(CSc1nc(-c2ccco2)cc(C(F)(F)F)n1)NC1CCCC1 – activity change, negative = inhibition: active: -68.1%
NS(=O)(=O)c1ccc(CCNc2nc3c(-c4cccc(F)c4)nnn3c3ccc(Cl)cc23)cc1 – activity change, negative = inhibition: active: -102%
CC1CCC/C=C/C2CC(O)CC2C(O)/C=C/C(=O)O1 (stereo not drawn) – activity change, negative = inhibition: active: -99.7%

More records follow:

Structure (SMILES) | activity change, negative = inhibition
O=c1n(CC2CO2)c(=O)n(CC2CO2)c(=O)n1CC1CO1 (stereo not drawn) | active: -62%
S=C1NC2(CCCCC2)Nc2ccccc21 | inactive: -25.3%
Cc1sc2ncn(/N=C/c3ccco3)c(=O)c2c1C | inconclusive: 0%
Cc1ccccc1C(=O)Nc1cccc(C(=O)N/N=C/c2ccccn2)c1 | inactive: -25.6%
COc1ccc(Cl)cc1NC(=S)N(CCCN1CCOCC1)Cc1cn(C)c2ccccc12 | active: -71.3%
COc1ccc(C(C)=O)cc1CN1CCCCC1 | inactive: -7.68%
CCCC(NC(=O)c1ccc(Br)o1)c1nc2ccccc2[nH]1 (stereo not drawn) | inconclusive: -40.8%
COCCCN1CN(S(=O)(=O)c2ccc(C)cc2C)c2nc3ccccc3nc21 | inconclusive: -50.2%
CC1=C(C)/C(=N\OS(=O)(=O)c2ccc(C)cc2)C=CC1=O | active: -85.6%
CCOc1ccc(C(=O)CSCCC(=O)O)cc1 | inconclusive: -52.8%
Cc1cccc(S(=O)(=O)c2cn(Cc3ccccc3)c3cc(N4CCCC(C)C4)c(F)cc3c2=O)c1 (stereo not drawn) | inconclusive: -41.1%
CNC(=S)NNC(=O)COc1ccccc1C | inconclusive: -41%
CC(C)c1ccc(NC(=O)c2cc([N+](=O)[O-])ccc2N2CCOCC2)cc1 | inconclusive: -53.7%
CCCCSC1=C(C#N)C(c2ccccc2C)CC(=O)N1 (stereo not drawn) | inconclusive: -52.5%
CCc1nc2c(OCc3ccc(OC(F)F)cc3)cccn2c1N(C)C(=O)c1ccco1 | inactive: 1.88%
COc1ccc(Nc2nnc(-c3ccc(C)c(S(N)(=O)=O)c3)c3ccccc23)cc1 | inconclusive: -50.9%
CCN(C(=O)c1cn(C)c(=O)c2cc(OC)c(OC)cc12)c1cc(C)ccc1C | inactive: 25.5%
COc1ccc(Cl)cc1CN1C(=O)C(Cc2ccccc2)ON=C1C (stereo not drawn) | inconclusive: -47.5%
CN(CCOc1ccc(-c2ccn(S(=O)(=O)c3c(Cl)cccc3Cl)n2)cc1)c1ccccn1 | inactive: 5.8%
COc1ccccc1CNC(=O)C(=O)NCC(c1ccc2c(c1)OCO2)N1CCOCC1 (stereo not drawn) | inactive: -2.9%
Cc1nc2cc(NC(=O)c3ccc(Br)s3)ccc2s1 | inconclusive: -43.3%
COC(=O)CN(C)C(=O)c1cccc(OC2CCN(S(=O)(=O)N(C)C)CC2)c1 | inactive: 51.2%

Structure (SMILES) | activity change, negative = inhibition
COc1cccc(CN(C)CC(=O)Nc2cccc(S(N)(=O)=O)c2)c1OC | inconclusive: -43%
COc1c(C)cc(Br)cc1C(=O)Nc1ccc(Cc2ccncc2)cc1 | active: -72%
COc1cccc(-c2nc(CS(=O)CC(=O)NCc3ccc4c(c3)OCO4)c(C)o2)c1 (stereo not drawn) | inconclusive: -51.1%
O=C(c1ccc(Cl)c(S(=O)(=O)N2CCCCC2)c1)N1CCN(Cc2ccccc2)CC1 | active: -61.2%
Clc1ccc2c(N3CCOCC3)ccnc2c1 | inactive: -36.7%
O=C(CCNC(=O)C1CCN(S(=O)(=O)c2ccccc2)CC1)NCc1ccc(Cl)cc1Cl | active: -74.6%
CC(=O)/C(C(=N)N1CCN(Cc2ccccc2)CC1)=C(\C)O | inactive: -4.84%
COc1cccc(C2C(C(=O)Nc3cccnc3)=C(C)Nc3nc(SCc4ccccc4)nn32)c1 (stereo not drawn) | inactive: 1.5%
O=C(COc1ccccc1-c1ccccc1)NCc1cccc(Cl)c1 | inconclusive: -45.9%
Cc1noc(C)c1C(=O)N1CCN(c2ccc(OCc3ccccc3)cc2)CC1 | inconclusive: -46.2%
COc1ccc(-n2nc3c(N4CCC(C(=O)NCc5cccc(C)c5)CC4)nnc(C)c3c2C)cc1 | active: -99.9%
COc1ccc(C2CC(=O)c3sc(NC(C)=O)nc3C2)cc1 (stereo not drawn) | active: -70.2%
CN(CC(=O)Nc1cccc(F)c1)C(=O)C1CCN(C(=O)c2ccc(Cl)cc2)CC1 | inconclusive: -48.1%
CN(CCc1ccccc1)C(=O)CC1C(=O)NCCN1Cc1ccccn1 (stereo not drawn) | inactive: -14.8%
COc1ccc(CNC(=O)CNC(=O)c2c(C)nn(C)c2Cl)cc1 | inactive: -19.3%
CCOC(=O)C(C)(C)Sc1ncnc2nc[nH]c12 | inactive: -13.8%
Cc1cc(Cl)ccc1OC(C)C(=O)OCC(=O)Nc1ccc2[nH]c(=O)[nH]c2c1 (stereo not drawn) | inconclusive: -42.5%
Cc1cc(C(=O)NNC(=O)c2c(-c3c(Cl)cccc3Cl)noc2C)no1 | inactive: 3.54%
COc1ccc(Nc2oc(COc3ccccc3OC)nc2C#N)cc1 | active: -79.6%
C=CCOc1cccc(C2C(C(=O)c3cc4ccccc4o3)=C(O)C(=O)N2c2cc(C)on2)c1 (stereo not drawn) | inconclusive: -58.4%
Cc1ccc(OCCCc2c(C)n[nH]c2C)cc1 | inconclusive: -54.8%
O=C(CCNC(=O)c1ccccc1Cl)Nc1cc(C(F)(F)F)ccc1Cl | inconclusive: -56.2%
